Source: the supplement of paper PMC10849652
This is one part of the list.

Protein sequences, listed by entry. Tags and fused reporters are not part of them. Lines headed by an entry give the natural chain unless they say otherwise; changes in a name come on top.
UniProt Q8WUH2: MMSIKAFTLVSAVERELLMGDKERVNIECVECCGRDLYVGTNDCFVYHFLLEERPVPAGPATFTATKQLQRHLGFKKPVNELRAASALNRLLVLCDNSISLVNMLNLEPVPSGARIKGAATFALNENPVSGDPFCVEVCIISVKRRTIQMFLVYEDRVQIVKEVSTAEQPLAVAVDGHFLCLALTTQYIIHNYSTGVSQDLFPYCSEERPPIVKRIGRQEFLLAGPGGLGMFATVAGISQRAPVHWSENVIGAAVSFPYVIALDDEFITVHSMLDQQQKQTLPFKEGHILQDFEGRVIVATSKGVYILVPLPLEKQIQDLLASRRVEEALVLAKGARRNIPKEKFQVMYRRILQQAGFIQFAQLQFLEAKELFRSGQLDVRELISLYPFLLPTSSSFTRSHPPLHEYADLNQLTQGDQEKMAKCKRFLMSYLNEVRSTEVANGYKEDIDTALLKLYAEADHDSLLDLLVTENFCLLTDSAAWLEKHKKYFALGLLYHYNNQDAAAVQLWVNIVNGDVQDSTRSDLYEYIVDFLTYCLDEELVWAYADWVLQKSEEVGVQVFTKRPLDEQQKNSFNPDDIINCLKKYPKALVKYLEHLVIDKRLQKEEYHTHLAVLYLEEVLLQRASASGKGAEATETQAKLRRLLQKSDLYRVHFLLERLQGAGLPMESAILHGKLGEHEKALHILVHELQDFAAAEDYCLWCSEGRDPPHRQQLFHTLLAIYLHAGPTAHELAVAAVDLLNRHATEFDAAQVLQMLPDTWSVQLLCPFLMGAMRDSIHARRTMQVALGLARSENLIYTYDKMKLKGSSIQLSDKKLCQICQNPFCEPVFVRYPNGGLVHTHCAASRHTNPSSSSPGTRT
UniProt Q9BVV7: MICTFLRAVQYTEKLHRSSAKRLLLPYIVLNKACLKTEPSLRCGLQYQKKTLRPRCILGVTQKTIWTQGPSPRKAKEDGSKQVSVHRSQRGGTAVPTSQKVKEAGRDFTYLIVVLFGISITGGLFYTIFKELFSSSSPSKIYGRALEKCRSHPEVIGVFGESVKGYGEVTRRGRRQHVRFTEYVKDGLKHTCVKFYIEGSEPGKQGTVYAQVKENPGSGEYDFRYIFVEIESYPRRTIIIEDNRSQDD
UniProt Q9HA65: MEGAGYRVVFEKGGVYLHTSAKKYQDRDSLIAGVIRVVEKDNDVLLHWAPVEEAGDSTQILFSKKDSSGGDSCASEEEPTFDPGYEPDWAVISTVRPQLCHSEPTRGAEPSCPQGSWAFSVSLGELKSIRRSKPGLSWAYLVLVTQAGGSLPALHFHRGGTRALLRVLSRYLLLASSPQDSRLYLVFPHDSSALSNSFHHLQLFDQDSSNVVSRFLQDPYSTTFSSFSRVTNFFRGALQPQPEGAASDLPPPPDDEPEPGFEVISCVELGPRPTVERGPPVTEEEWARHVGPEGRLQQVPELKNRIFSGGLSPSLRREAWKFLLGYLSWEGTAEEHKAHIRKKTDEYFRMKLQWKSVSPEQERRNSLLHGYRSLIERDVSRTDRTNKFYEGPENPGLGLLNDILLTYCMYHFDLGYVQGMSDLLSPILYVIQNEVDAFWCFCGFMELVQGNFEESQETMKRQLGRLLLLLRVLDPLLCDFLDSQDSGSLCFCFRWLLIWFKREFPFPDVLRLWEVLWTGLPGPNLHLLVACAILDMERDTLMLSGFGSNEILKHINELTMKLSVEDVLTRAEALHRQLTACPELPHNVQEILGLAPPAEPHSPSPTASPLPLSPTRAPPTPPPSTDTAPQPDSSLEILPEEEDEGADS
UniProt O14776: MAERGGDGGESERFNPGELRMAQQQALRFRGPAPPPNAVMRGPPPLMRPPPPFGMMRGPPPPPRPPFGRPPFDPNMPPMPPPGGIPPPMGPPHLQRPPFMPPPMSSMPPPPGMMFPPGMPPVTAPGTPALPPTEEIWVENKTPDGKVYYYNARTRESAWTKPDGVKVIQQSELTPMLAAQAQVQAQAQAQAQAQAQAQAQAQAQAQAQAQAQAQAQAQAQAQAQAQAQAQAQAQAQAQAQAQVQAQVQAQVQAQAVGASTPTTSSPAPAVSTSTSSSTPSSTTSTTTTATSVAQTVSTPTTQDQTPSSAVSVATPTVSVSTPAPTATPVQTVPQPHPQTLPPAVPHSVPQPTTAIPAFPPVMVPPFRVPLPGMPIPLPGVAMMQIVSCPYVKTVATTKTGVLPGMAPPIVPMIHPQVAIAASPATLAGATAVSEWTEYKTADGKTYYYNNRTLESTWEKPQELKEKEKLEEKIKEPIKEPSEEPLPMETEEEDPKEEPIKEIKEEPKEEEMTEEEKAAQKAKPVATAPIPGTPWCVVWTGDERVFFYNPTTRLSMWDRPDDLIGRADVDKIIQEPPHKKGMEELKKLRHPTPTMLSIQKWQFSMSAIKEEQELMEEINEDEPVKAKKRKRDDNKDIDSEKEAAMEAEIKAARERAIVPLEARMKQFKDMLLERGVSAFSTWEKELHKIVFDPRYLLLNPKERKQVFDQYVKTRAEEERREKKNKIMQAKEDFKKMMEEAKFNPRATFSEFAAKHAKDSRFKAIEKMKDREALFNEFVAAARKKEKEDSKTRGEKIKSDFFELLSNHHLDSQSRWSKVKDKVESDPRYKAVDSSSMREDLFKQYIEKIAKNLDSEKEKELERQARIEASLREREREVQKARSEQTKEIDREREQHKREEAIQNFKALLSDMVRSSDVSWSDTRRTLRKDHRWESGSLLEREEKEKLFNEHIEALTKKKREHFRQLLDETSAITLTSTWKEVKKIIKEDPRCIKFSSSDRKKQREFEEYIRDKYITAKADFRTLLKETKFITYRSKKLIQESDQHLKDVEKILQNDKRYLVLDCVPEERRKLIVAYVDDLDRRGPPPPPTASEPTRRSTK
UniProt Q6YHU6: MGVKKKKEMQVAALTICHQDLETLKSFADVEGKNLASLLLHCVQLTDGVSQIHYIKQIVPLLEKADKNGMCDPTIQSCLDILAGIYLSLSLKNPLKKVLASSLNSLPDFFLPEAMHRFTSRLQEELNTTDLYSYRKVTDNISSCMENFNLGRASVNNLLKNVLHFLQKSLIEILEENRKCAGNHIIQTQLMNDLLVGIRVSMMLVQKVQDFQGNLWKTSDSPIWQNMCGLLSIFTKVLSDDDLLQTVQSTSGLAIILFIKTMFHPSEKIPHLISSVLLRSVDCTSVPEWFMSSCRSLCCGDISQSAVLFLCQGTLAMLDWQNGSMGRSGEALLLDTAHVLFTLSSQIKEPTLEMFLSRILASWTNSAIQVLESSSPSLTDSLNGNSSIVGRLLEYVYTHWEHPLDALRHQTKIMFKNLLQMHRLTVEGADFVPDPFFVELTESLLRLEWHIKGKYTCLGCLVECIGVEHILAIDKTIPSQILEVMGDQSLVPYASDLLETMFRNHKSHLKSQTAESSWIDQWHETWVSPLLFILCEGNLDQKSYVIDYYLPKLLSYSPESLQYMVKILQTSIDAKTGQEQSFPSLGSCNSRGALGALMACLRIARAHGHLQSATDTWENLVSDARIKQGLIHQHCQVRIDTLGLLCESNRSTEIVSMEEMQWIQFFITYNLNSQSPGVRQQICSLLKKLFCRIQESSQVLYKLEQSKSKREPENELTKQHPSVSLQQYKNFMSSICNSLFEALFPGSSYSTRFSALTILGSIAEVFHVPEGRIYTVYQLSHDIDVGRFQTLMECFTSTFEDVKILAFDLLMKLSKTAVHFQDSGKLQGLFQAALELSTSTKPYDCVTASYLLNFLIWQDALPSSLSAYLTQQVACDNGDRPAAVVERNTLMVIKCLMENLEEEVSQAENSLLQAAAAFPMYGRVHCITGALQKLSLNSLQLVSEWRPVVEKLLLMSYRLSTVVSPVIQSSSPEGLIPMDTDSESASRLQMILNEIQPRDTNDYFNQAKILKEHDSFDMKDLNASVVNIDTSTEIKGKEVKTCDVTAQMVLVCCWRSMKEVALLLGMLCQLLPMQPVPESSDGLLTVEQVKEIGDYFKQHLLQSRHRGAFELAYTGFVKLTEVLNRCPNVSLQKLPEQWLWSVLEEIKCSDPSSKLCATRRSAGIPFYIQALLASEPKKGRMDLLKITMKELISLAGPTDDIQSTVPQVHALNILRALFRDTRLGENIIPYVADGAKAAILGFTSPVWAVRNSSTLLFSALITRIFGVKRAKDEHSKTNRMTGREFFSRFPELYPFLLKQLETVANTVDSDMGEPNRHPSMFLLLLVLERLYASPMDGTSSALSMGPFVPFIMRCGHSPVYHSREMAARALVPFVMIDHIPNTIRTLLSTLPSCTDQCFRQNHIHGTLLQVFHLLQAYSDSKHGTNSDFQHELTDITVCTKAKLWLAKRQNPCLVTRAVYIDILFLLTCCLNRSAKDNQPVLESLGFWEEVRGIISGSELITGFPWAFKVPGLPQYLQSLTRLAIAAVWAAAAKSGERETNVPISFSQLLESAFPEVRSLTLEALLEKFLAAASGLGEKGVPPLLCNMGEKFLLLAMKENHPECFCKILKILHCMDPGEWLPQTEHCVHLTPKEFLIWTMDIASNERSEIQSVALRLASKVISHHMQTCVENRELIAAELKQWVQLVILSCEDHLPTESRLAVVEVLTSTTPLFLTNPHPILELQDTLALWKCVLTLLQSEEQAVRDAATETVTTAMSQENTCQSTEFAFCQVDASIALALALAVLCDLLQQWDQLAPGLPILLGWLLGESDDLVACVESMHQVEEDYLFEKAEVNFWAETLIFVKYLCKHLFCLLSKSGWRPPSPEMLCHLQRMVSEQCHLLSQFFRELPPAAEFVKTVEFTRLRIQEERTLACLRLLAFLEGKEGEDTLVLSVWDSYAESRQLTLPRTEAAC
UniProt Q07157: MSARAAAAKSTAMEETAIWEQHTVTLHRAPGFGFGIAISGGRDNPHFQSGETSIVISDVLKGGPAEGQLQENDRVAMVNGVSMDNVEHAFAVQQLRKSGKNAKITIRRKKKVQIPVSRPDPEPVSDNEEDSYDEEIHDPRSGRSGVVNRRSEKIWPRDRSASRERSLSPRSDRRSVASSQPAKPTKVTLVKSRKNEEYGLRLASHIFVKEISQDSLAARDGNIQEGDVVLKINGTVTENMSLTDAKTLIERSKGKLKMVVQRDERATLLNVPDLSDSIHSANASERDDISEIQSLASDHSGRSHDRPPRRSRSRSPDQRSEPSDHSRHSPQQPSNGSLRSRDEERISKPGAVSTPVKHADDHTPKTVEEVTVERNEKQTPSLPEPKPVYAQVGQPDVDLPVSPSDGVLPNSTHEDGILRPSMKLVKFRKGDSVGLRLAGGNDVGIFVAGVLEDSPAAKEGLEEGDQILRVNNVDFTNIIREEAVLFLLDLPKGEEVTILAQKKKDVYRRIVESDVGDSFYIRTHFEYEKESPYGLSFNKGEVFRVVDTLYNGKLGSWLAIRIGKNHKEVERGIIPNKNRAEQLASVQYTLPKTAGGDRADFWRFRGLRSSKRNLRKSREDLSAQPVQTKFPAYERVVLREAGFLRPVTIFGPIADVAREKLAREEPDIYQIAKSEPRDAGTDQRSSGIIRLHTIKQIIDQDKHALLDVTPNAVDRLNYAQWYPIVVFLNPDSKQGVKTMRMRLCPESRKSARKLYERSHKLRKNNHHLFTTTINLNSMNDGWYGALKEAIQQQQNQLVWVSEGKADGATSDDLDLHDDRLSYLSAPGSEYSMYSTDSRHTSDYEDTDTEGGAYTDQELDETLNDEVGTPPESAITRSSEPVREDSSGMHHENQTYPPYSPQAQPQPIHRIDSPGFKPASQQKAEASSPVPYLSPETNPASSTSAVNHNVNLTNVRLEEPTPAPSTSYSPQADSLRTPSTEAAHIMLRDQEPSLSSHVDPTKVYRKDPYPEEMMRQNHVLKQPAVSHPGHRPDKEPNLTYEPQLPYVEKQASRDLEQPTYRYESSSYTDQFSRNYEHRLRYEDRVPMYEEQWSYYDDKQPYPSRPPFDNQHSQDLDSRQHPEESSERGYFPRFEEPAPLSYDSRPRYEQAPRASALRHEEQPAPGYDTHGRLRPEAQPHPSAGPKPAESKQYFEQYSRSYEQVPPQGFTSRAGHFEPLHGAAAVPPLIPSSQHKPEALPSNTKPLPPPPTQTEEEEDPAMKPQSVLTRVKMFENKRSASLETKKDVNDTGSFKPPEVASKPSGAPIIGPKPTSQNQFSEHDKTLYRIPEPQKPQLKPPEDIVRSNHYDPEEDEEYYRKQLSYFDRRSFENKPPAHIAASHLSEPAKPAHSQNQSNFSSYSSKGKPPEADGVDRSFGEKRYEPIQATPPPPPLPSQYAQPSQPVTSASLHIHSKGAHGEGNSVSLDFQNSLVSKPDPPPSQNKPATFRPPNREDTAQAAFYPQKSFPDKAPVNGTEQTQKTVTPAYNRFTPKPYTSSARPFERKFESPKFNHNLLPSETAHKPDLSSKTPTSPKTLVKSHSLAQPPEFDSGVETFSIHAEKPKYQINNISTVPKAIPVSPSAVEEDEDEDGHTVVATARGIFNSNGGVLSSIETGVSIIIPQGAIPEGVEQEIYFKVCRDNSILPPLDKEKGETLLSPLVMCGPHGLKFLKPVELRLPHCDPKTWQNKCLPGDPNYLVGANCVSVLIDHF

Legend:
Assay in all cases: log2 fold change, soluble protein after heating vs DMSO (PISA); higher = thermal stabilisation; K562 cells, 10 uM, 30 min; active = over 0.2 and 3.5 SD of the protein, either way, in both replicates (recomputed)
[1] = compound: CC[C@@H]1C(=O)N(C)c2cnc(Nc3ccc(C(=O)NC4CCN(C)CC4)cc3OC)nc2N1C1CCCC1
How it was run: (§1)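 K562 cells at 2×10^6 cells/mL were exposed to 10 μM compound for 30 min, then aliquots were heated for 3 min across 48°C-58°C, pooled, and extracted in PBS containing 0.5% NP-40 at 4°C. The supernatant after 21,000xg for 90 min was taken as soluble protein and measured by TMTpro 16plex LC-MS/MS with channel sums equalised. Thermal stability is reported relative to control samples, with values from duplicates. Fold changes are given on a log2 scale.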

volasertib = compound: CC[C@@H]1C(=O)N(C)c2cnc(Nc3ccc(C(=O)N[C@H]4CC[C@H](N5CCN(CC6CC6)CC5)CC4)cc3OC)nc2N1C(C)C [volasertib]
How it was run: as §1

[2] = compound: CC[C@H](C)N1C=C(C2=C(C=C(C=C21)C3=CN=C(C=C3)N4CCNCC4)C(=O)NCC5=C(C=C(NC5=O)C)C)C
How it was run: as §1

epoxomicin = compound: CC[C@H](C)[C@@H](C(=O)N[C@@H]([C@@H](C)O)C(=O)N[C@@H](CC(C)C)C(=O)[C@]1(CO1)C)NC(=O)[C@H]([C@@H](C)CC)N(C)C(=O)C [epoxomicin]
How it was run: as §1

[3] = compound: CCn1cc(-c2ccnc3[nH]c(-c4cccc(CN(C)C)c4)cc23)c(-c2ccc(NC(=O)N(C)C)cc2)n1
How it was run: as §1

[4] = compound: CN(C)CC(=O)Nc1ccc2[nH]c(=O)c3ccccc3c2c1
How it was run: as §1

[5] = compound: CN1C2=C(C3=C1C(=O)N(N=C3)CC4=CC(=CC=C4)N)SC(=C2)S(=O)C
How it was run: as §1

[6] = compound: CN1CCC(CNc2ccc3ncc(-c4cccc(OC(F)(F)F)c4)n3n2)CC1
How it was run: as §1

[7] = compound: CCn1c(C(=O)N(C2CC2)C2CC2)cc2c3c(ncn3C)c(Nc3cc(C)n(C)n3)nc21
How it was run: as §1

rosiglitazone = compound: CN(CCOC1=CC=C(C=C1)C[C@H]2C(=O)NC(=O)S2)C3=CC=CC=N3 (racemic) [rosiglitazone]
How it was run: as §1

Measured: log2 fold change

TEX264 (UniProt Q9Y6I9)
inactive: [1] 0.016 | volasertib 0.356 | [2] -0.073 | epoxomicin 0 | [3] 0.499 | [4] 0.098 | [5] 0.182 | [6] 0.262

TBC1D15 isoform 3 (UniProt Q8TC07)
inactive: [1] -0.221 | [2] 0.04 | epoxomicin 0.004 | [3] -0.024 | [4] 0.031 | [5] 0.018
active: volasertib -0.485 | [6] -0.241

TIMM29 (UniProt Q9BSF4)
inactive: [1] 0.044 | volasertib -0.071 | [2] 0.019 | epoxomicin -0.013 | [3] -0.035 | [4] 0 | [5] -0.103 | [6] 0.062

THRAP3 (UniProt Q9Y2W1)
inactive: [1] 0.03 | volasertib 0.098 | [2] -0.137 | epoxomicin -0.093 | [3] 0.101 | [4] -0.026 | [5] 0.025 | [6] -0.058

TK1 (UniProt P04183)
inactive: [1] 0.039 | volasertib 0.062 | [2] -0.039 | epoxomicin 0.084 | [3] 0.001 | [4] -0.009 | [5] -0.075 | [6] -0.046

TGFBRAP1 (UniProt Q8WUH2)
inactive: [1] -0.098 | volasertib -0.253 | [2] 0.128 | epoxomicin 0.048 | [3] -0.059 | [4] 0.11 | [5] 0.195 | [6] 0.011

THYN1 (UniProt Q9P016)
inactive: [1] 0.059 | volasertib 0.09 | [2] 0.048 | epoxomicin 0.016 | [3] -0.04 | [4] -0.004 | [5] -0.09 | [6] 0.09

TJP2 isoform 7 (UniProt Q9UDY2)
inactive: [1] -0.128 | volasertib -0.298 | [2] -0.018 | epoxomicin 0.01 | [3] -0.083 | [4] 0.015 | [5] -0.021 | [6] -0.094

Random excerpt: two records from the list.
TGFBRAP1 (UniProt Q8WUH2)
inactive: [1] -0.098 | volasertib -0.253 | [2] 0.128 | epoxomicin 0.048 | [3] -0.059 | [4] 0.11 | [5] 0.195 | [6] 0.011

THYN1 (UniProt Q9P016)
inactive: [1] 0.059 | volasertib 0.09 | [2] 0.048 | epoxomicin 0.016 | [3] -0.04 | [4] -0.004 | [5] -0.09 | [6] 0.09

More records follow:

TCEAL4 isoform 2 (UniProt Q96EI5)
inactive: [1] -0.026 | volasertib 0.067 | epoxomicin 0.136 | [7] -0.053 | [3] 0.041 | [4] 0.07 | [5] 0 | [6] 0.018

TIMM21 (UniProt Q9BVV7)
inactive: [1] -0.133 | [2] 0.034 | epoxomicin -0.041 | [3] -0.028 | [4] -0.025 | [5] -0.044 | [6] -0.227
active: volasertib -0.286

TBC1D20 isoform 3 (UniProt Q96BZ9)
inactive: [1] 0.273 | volasertib -0.153 | [2] 0.07 | epoxomicin 0.068 | [3] 0.028 | [4] 0.04 | [6] 0.046

TFRC (UniProt P02786)
inactive: [2] -0.035 | epoxomicin -0.009 | [3] -0.005 | [4] 0.004 | [5] -0.033
active: [1] -0.589 | volasertib -0.417 | [6] -0.289

TET2 (UniProt Q6N021)
inactive: [1] -0.474 | [2] -0.173

TENT5C (UniProt Q5VWP2)
inactive: [1] -0.073 | volasertib -0.038 | [2] 0.005 | [3] 0.009 | [4] 0.031 | [5] -0.066 | [6] -0.082

TIMM10B (UniProt Q9Y5J6)
inactive: [1] 0.033 | volasertib -0.011 | [2] -0.064 | epoxomicin 0.274 | [3] -0.033 | [4] -0.12 | [5] 0.063 | [6] 0.131

TFCP2 (UniProt Q12800)
inactive: [1] 0.138 | [2] 0.04 | epoxomicin -0.041 | [7] -0.172 | [3] 0.052 | rosiglitazone -0.014 | [5] 0.319 | [6] -0.026

TLCD3A (UniProt Q8TBR7)
inactive: [1] 0.164 | volasertib 0.003 | [3] 0.039 | [4] -0.02 | [5] 0.009 | [6] 0.022

THTPA (UniProt Q9BU02)
inactive: [1] -0.166 | volasertib -0.187 | [7] -0.079 | [4] -0.136 | rosiglitazone -0.051 | [5] -0.155

TBC1D17 (UniProt Q9HA65)
inactive: [1] -0.094 | [2] 0.064 | [7] -0.008 | [3] -0.024 | [4] 0.018 | rosiglitazone 0.006 | [5] 0.019 | [6] -0.05

TCERG1 (UniProt O14776)
active: volasertib -0.445
inactive: [1] -0.145 | [2] 0.133 | epoxomicin 0.116 | [3] -0.032 | [4] 0.135 | [5] -0.038 | [6] -0.136

TCP11L1 (UniProt Q9NUJ3)
inactive: [1] -0.134 | volasertib -0.378 | [2] 0.076 | [7] 0.049 | [5] -0.14

TK2 isoform 6 (UniProt O00142)
inactive: [1] 0.273 | [2] -0.019 | epoxomicin -0.069 | [7] -0.034 | [3] -0.229 | [4] -0.159 | rosiglitazone 0.451 | [5] -0.01 | [6] -0.018

TIMM44 (UniProt O43615)
active: [1] -0.412 | volasertib -0.57 | [6] -0.886
inactive: [2] -0.004 | epoxomicin 0.057 | [3] -0.091 | [4] 0.012 | [5] -0.056

THADA (UniProt Q6YHU6)
inactive: [1] -0.003 | volasertib -0.017 | [2] 0.011 | epoxomicin -0.007 | [3] 0.057 | [4] 0.051 | [5] -0.019 | [6] -0.146

TIAL1 isoform 2 (UniProt Q01085)
inactive: [1] 0.042 | volasertib -0.042 | [2] 0.006 | epoxomicin 0.001 | [3] 0.026 | [4] -0.056 | [5] -0.063 | [6] -0.03

TFAM (UniProt Q00059)
inactive: [1] 0.058 | volasertib 0.059 | [2] 0.007 | epoxomicin -0.053 | [3] 0.062 | [4] -0.074 | [5] 0.098 | [6] 0.049

TJP1 (UniProt Q07157)
inactive: [1] -0.023 | volasertib -0.166 | [2] 0.022 | epoxomicin 0.007 | [3] -0.052 | [4] 0.012 | [5] 0 | [6] -0.071

TECR (UniProt Q9NZ01)
inactive: [1] -0.116 | [2] 0.015 | epoxomicin 0.026 | [3] -0.085 | [4] 0.042 | [5] -0.063
active: volasertib -0.24 | [6] -0.347

TFR2 (UniProt Q9UP52)
active: [1] -0.483 | volasertib -0.382
inactive: [2] -0.045 | epoxomicin 0.01 | [3] 0.038 | [4] -0.035 | [5] -0.003 | [6] -0.22

TBRG4 (UniProt Q969Z0)
inactive: [1] -0.361 | volasertib -0.583 | [2] -0.003 | epoxomicin 0.12 | [3] 0.009 | [4] 0.111 | [5] 0.047
active: [6] -1.19
